According to PubChem BioAssay AID2685 (National Center for Advancing Translational Sciences (NCATS), 2010):
Hit rate of the full screen: of about 320,000 compounds, about 2,100 (0.66%) were called active. Inconclusive means that the source gave no clear call. Such entries were picked first, then a sample of the others. Calls follow the shape of the dose curve; as a rule, active = well fitted inhibition curve with a large enough effect in the signal ratio, with a control signal flat (not every such curve was filed as active); inconclusive = small, poorly fitted or top-dose-only effect, or effect the other way, or a change in a side signal; inactive = flat fitted curve, though single readings scatter; the % refers to the signal ratio. A potency beside an inconclusive call is a rough fit, not a confirmed value.

assay: qHTS Assay for Lipid Storage Modulators in Drosophila S3 Cells; settings: BODIPY lipid droplet fluorescence, 18-24 h, cells fed with added oleic acid; lipid storage change, negative = inhibition: at 46.1 µM (top of the series) unless noted
How it was run: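 Drosophila S3 cells got compounds at several concentrations plus oleic acid (400 uM solution). Laser-scanning cytometry with 488 nm excitation read lipid droplets at 500-530 nm and cells at 575-640 nm. Percent activity was relative to 20 uM Triacsin C.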
% is scaled to controls: 0 for no effect and ±100 for the full control effect; potency is read from the fitted curve at half-maximal effect.

Structure (SMILES)	lipid storage change, negative = inhibition	Potency
CCC1CCCCN1C(=S)NC(=O)c1ccc([N+](=O)[O-])cc1 (stereo not drawn)	inconclusive: 38.7%	
O=C1C=C(/C=C/C2C=CC=CC2)C[C@@H](c2ccc(Cl)cc2)C1 (stereo partly drawn)	inconclusive: -100%	
CCOc1ccc(S(=O)(=O)N(C)c2ccc(OCC(=O)NC3=NCCS3)cc2)cc1	inconclusive: 41%	
c1ccc2c3c(c(CN4CCCCC4)cc2c1)COC3	inconclusive: -22.4%	
Cc1ccc(C)c(C(=O)CN2C(=O)C(=O)N(C3CCCC3)C2=O)c1		inconclusive: 29.1 µM [falling, single point]
CCNc1nc(Nc2ccc(C)c(Cl)c2)c2cnn(C)c2n1		inconclusive: 8.2 µM [falling, partial curve]
O=[N+]([O-])c1ccccc1S(=O)(=O)Nc1ccc(-c2ccc(N3CCOCC3)nn2)cc1	inconclusive	
O=c1cc(N2CCN(c3ccccc3)CC2)[nH]c(=O)n1-c1ccccc1	inconclusive: -3.88%	
C[C@@H]1NC(=O)[C@@]2(C)[C@@H](c3ccccc3)[C@H]3COc4ccc(Cl)cc4[C@@H]3N2C1=O	inconclusive: 6.3%	
CC1(C)CC(NC(=S)Nc2ccc([N+](=O)[O-])cc2)CC(C)(C)N1	inactive	
CCOC(=O)c1ccc(N2C(=O)C(C)=C(C)C2=O)cc1		inconclusive: 0.058 µM [activator, full curve, poor fit]
COc1ccccc1NC(=O)CCSc1ccc(C)cc1		inconclusive: 29.1 µM [cytotoxic, single point]
CCOC(=O)c1cc2occc2n1CC(=O)N1CCCc2ccccc21	inconclusive: 5.17%	
CCCOc1ccc(C2/C(=C(\O)c3c(C)[nH]c(C(=O)OC)c3C)C(=O)C(=O)N2CCN(C)C)cc1 (stereo not drawn)	inconclusive: 45.3%	
Nc1nc(SCC(=O)Nc2ccc(OC(F)(F)F)cc2)[nH]c(=O)c1NC(=O)c1ccc(Br)o1		inconclusive: 29.1 µM [falling, single point]
CCOC(=O)C1=C(N)n2c(s/c(=C\c3cccs3)c2=O)=C(C(=O)OCC)C1c1cccs1 (stereo not drawn)	inconclusive: 5.42%	
CC(C)N1CCN(Cc2ccc(OC3CCCC3)cc2)CC1CCO (stereo not drawn)		inconclusive: 1.64 µM [activator, full curve]
O=c1[nH]cc(O)c(=O)[nH]1		inconclusive: 0.146 µM [falling, full curve, poor fit]
Cc1ccc(NC(=O)c2ccccc2-c2ccccc2C(=O)O)cc1	inconclusive: 1.22%	
CCN(Cc1ccc2c(c1)OCCO2)C(=O)CSc1nc(C)nc2sc(C)c(C)c12	inconclusive: 6.78%	
COc1ccc(CN2C(=O)NC3(CCCCCC3)C2=O)cc1F		inconclusive: 6.51 µM [activator, partial curve]
OCn1ncn(-c2ccccc2)c1=S	inconclusive: 39.5%	
CCNc1nc(CN2CCCCC2)nc2scc(-c3ccccc3)c12		inconclusive: 29.1 µM [falling, single point]
Cc1ccc(S(=O)(=O)Cn2cnnn2)cc1	inconclusive: -37.7%	

Structure (SMILES)	lipid storage change, negative = inhibition	Potency
CCN(CC)CCN(Cc1cc2cc3c(cc2[nH]c1=O)OCCO3)C(=O)NC1CCCCC1		active: 16.4 µM
CCCCNC(=S)NNC(=O)C1=NN(c2cc(C)ccc2C)C(=O)CC1		inconclusive: 0.326 µM [falling, full curve]
Cc1cc2[nH]c(=O)c(=O)[nH]c2cc1S(=O)(=O)NCc1ccccc1	inconclusive: 234%	
Cc1ccc(CSCC(=O)N2CCCC2)cc1	inconclusive: 0.348%	
Cc1ccc2nc(Nc3nc(=O)c4ccccc4n3C)nc(C)c2c1	inconclusive: 14.1%	
O=C(CN1CCC(NC(=O)c2ccccc2)CC1)NCc1ccccc1F		inconclusive: 4.61 µM [activator, single point]
COc1cc(C(=O)NCCCC2CCCC2)ccc1OC1CCN(C(C)=O)CC1	inconclusive: 76.7%	
CC(C)(C)OC(=O)n1cc(/C=N/NC(=O)c2ccco2)c2ccccc21		inconclusive: 12.6 µM [falling, single point]
COc1ccc(S(=O)(=O)N(Cc2ccc(OC)c(OC)c2)Cc2ccco2)cc1		inconclusive: 11.6 µM [activator, partial curve]
Cc1ncc(CO)c(/C=N/NC(=O)c2ccc(Br)cc2)c1O		inconclusive: 29.1 µM [falling, single point]
Cc1cc(OCC(=O)NCc2ccncc2)ccc1Cl	inconclusive: 17.4%	
CCN(CC)S(=O)(=O)c1cccc(C(=O)N[C@H](C(=O)OCC(N)=O)C(C)C)c1		inconclusive: 29.1 µM [falling, single point]
COc1cccc(NC(=S)NC(=O)c2c(Cl)c(C)nn2C)c1	inconclusive: 25.6%	
O=C(O)C1CCN(S(=O)(=O)c2cccc3nonc23)CC1	inconclusive: 9.61%	
CCOC(=O)c1nncc(-c2ccccc2)n1		inconclusive: 29.1 µM [activator, single point]
c1ccc(NCC2OCc3ccccc3CO2)cc1		inconclusive: 3.26 µM [activator, partial curve, poor fit]
CC1(C)CC(=O)C(C2(O)C(=O)N(Cc3ccccc3)c3ccccc32)CO1 (stereo not drawn)		inconclusive: 23.1 µM [activator, single point]
CC1(C)CC(=O)C=C(NCc2ccco2)C1		inconclusive: 1.84 µM [falling, full curve, poor fit]
COc1cc2c(c3oc(-c4ccccc4)cc(=O)c13)C=CC(C)(C)O2		inconclusive: 32.6 µM [falling, single point]
Cc1ccccc1C(=O)c1c[nH]c(C(=O)NCc2cccs2)c1	inconclusive: -1.94%	
Cc1nc2nc[nH]n2c(=O)c1CCOC(=O)c1c(F)cccc1F	inactive	
Cc1ccc(N2CCN(C(=O)N3CCCC3)CC2)cc1C	inconclusive: -0.0984%	
O=C(COC(=O)c1cc(-c2ccc(F)cc2)nc2ccccc12)NCC1CCCO1 (stereo not drawn)	inconclusive: 32.6%	
O=C(O)CSc1nnc(-c2cccc(S(=O)(=O)N3CCCCC3)c2)o1	inconclusive: -14.7%	

An excerpt from above in order of length of the SMILES, ascending.
Structure (SMILES)	lipid storage change, negative = inhibition	Potency
OCn1ncn(-c2ccccc2)c1=S	inconclusive: 39.5%	
CCOC(=O)c1ccc(N2C(=O)C(C)=C(C)C2=O)cc1		inconclusive: 0.058 µM [activator, full curve, poor fit]
CC1(C)CC(=O)C(C2(O)C(=O)N(Cc3ccccc3)c3ccccc32)CO1 (stereo not drawn)		inconclusive: 23.1 µM [activator, single point]
